This is one part of the list. Shown are side measurements of this screen, not its main read-out; they come without a call. Most of these compounds were active or inconclusive in the main read-out, so they are no random draw. The note in brackets gives the kind of curve behind each potency; many fits are weak.
Assay: qHTS Assay to Find Inhibitors of Chronic Active B-Cell Receptor Signaling
Conditions: ABC-DLBCL IkBa-CBG/CBR reporter, luminescence ratio (green luciferase fused to IkBa over red control in TMD8 lymphoma cells), 4 h
Summary of the method: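 Concentration-response series (up to 46 uM) were applied to TMD8 dual-reporter cells for 4 h at 37C with doxycycline. Green/red ratio, after filter-overlap correction, defined %Activity; red signal alone was normalised to basal cells and zero luminescence.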

[1] = measured here: CBR red luminescence, cell number

SMILES | AC50 [1] | AC50 (measured here: IkBa-CBG green luminescence)
CN(c1ccccc1C(=O)Nc1ccc(CC#N)cc1)S(=O)(=O)c1ccccc1 | 35.5 µM [rising, single point] | –
CC(=O)N1CCN(c2nnnn2-c2ccccc2)CC1 | 2.59 µM [falling, full curve, poor fit] | –
c1ccc(NCCCNc2ccccc2)cc1 | 7.31 µM [rising, single point] | –
O=C1c2ccccc2-c2c1cccc2C(=O)N1CCCCC1 | 32.6 µM [rising, partial curve, poor fit] | –
CSc1nc(N)c(C#N)c(-c2ccc(Cl)cc2)c1C#N | 15.8 µM [falling, partial curve] | –
COc1ccc(Cl)cc1NC(=O)CC1S/C(=N/N=C2CCCCCC2)NC1=O (stereo not drawn) | 7.08 µM [falling, partial curve] | –
COCCNC(=O)c1onc(CSc2ccccc2)c1C(=O)O | 10 µM [falling, partial curve] | –
CC(=O)NC1CC2CCCC(C1)N2CC(=O)NCc1ccc(F)cc1 (stereo not drawn) | 2.06 µM [falling, partial curve, poor fit] | –
Cc1ccccc1OCCC(=O)Nc1cccc(S(=O)(=O)Nc2ccccc2Cl)c1 | 23.1 µM [falling, partial curve, poor fit] | –
COc1cccc(-c2cc3nc4c(c(N5CCC6(CC5)OCCO6)n3n2)CCCC4)c1 | 18.4 µM [falling, single point] | –
CCOc1ccc(NC(=O)c2ccc3c(c2)OCCO3)cc1S(=O)(=O)N(CC)CC | 0.58 µM [falling, full curve, poor fit] | –
Cc1cc(C)c(S(=O)(=O)NCCc2sc3nc(-c4ccc(F)cc4)nn3c2C)c(C)c1 | 8.91 µM [falling, partial curve, poor fit] | –
Cc1ccc(S(=O)(=O)NC(C)C(=O)OCC(=O)N(C)c2ccccc2)cc1 (stereo not drawn) | 6.51 µM [rising, single point] | –
C=CCc1c(C)nc(SCc2nc3ccccc3c(=O)[nH]2)[nH]c1=O | 14.6 µM [falling, single point] | –
CC(C)(C)C1CCc2c(sc3nc(SCC(N)=O)nc(N)c23)C1 (stereo not drawn) | 5.8 µM [falling, partial curve] | –
Nc1ccc2c(c1)C(=O)N(CCCCCC(=O)O)C2 | 5.8 µM [rising, partial curve, poor fit] | –
COc1ccc(NC(=O)CCSc2cc(C)c3ccccc3n2)cc1 | 3.98 µM [rising, full curve, poor fit] | –
Cc1ccc(-n2ncc3c(NCc4ccco4)ncnc32)c(C)c1 | 0.116 µM [rising, full curve, poor fit] | –
CCOc1ccc(-n2c(C)nc3cc(C(=O)NC4CCCC4)ccc32)cc1 | 1.41 µM [rising, full curve] | –
Cc1ccccc1CS(=O)(=O)CCC(=O)N1CCN(c2ccc(N3CCOCC3)nn2)CC1 | 0.184 µM [rising, full curve, poor fit] | –
COc1ccc(-c2occ(C(=O)O)c2C(=O)O)cc1 | 13 µM [falling, partial curve, poor fit] | –

SMILES | AC50 [1] | AC50 (measured here: IkBa-CBG green luminescence)
Cn1cc(S(=O)(=O)N2CCCC2)cc1C(=O)N1CCN(c2ccccc2)CC1 | 14.1 µM [rising, single point] | –
Cc1nnc(N/N=C/c2ccc([N+](=O)[O-])cc2)n1N | 35.5 µM [rising, single point] | –
CCC(CO)n1c(SCc2cc([N+](=O)[O-])cc3c2OCOC3)nc2ccccc2c1=O (stereo not drawn) | 23.1 µM [falling, single point] | –
C(=C/c1nccc2c1[nH]c1ccccc12)/c1ccc2c(c1)OCO2 | 17.8 µM [falling, single point] | –
Cc1ccc(-c2c(C(=O)N/N=C/c3cccc(Cl)c3)nnn2-c2nonc2N)cc1 | 10 µM [rising, partial curve, poor fit] | –
O=C(NCCNC(=O)c1cc(OCC(F)(F)F)ccc1OCC(F)(F)F)Nc1cccc(C(F)(F)F)c1 | 35.5 µM [falling, single point] | –
O=C(CNC(=S)N(CCCN1CCOCC1)Cc1cccs1)N1CCCCCC1 | 0.794 µM [rising, full curve, poor fit] | –
C=CCn1c(SCC(=O)Nc2cccc(C(=O)OC)c2)nnc1C(C)NC(=O)c1cccs1 (stereo not drawn) | 9.2 µM [falling, partial curve] | –
CCN(CC)C(=O)C1CCCN(C(=S)Nc2cccc3ccccc23)C1 (stereo not drawn) | 25.9 µM [falling, single point] | –
CC(Oc1ccc(Cl)cc1)C(=O)Nc1cccc(S(=O)(=O)N2CCOCC2)c1 (stereo not drawn) | 0.13 µM [rising, full curve, poor fit] | –
COc1ccc(N2CCN(C(=O)c3cc4ccccc4o3)CC2)cc1 | 3.16 µM [rising, single point] | –
Nc1nc2ccccc2n1C(=O)c1cccs1 | 1.78 µM [falling, full curve] | –
O=C(NN=C1CCCCCC1)c1cccs1 | 20 µM [falling, single point] | –
N#CCCCN1C(=O)C(=C(C#N)C#N)c2ccccc21 | 35.5 µM [falling, single point] | –
Nc1nc(-c2cccnc2)nn1C(=O)c1ccccc1Cl | 10 µM [falling, partial curve, poor fit] | –
O=c1oc(Nc2ccc(F)cc2)nc2ccccc12 | 2.24 µM [falling, full curve, poor fit] | –
O=S(=O)(NCC(c1cccs1)S(=O)(=O)c1ccccc1)c1ccccc1 (stereo not drawn) | 3.55 µM [falling, partial curve] | –
CC(OC(=O)c1cc2sccc2n1C)C(=O)NCc1ccc(F)cc1 (stereo not drawn) | 5.17 µM [rising, partial curve, poor fit] | –
CC(C)(C)c1cc(NC(=O)CSc2nnc(NCc3ccccc3)s2)n(-c2ccccc2)n1 | 14.6 µM [falling, single point] | –
CC1CCc2c(sc(NC(=S)NC(=O)c3ccccc3)c2C#N)C1 (stereo not drawn) | 6.31 µM [rising, single point] | –
CCCOc1c(OC)cccc1C1CC(=O)Nc2cc3c(cc21)OCCO3 (stereo not drawn) | 11.2 µM [rising, partial curve] | 35.5 µM [falling, single point]

Molecules above that have two or more sulfur atoms, in the order listed:
SMILES | AC50 [1] | AC50 (measured here: IkBa-CBG green luminescence)
Cc1cc(C)c(S(=O)(=O)NCCc2sc3nc(-c4ccc(F)cc4)nn3c2C)c(C)c1 | 8.91 µM [falling, partial curve, poor fit] | –
CC(C)(C)C1CCc2c(sc3nc(SCC(N)=O)nc(N)c23)C1 (stereo not drawn) | 5.8 µM [falling, partial curve] | –
O=C(CNC(=S)N(CCCN1CCOCC1)Cc1cccs1)N1CCCCCC1 | 0.794 µM [rising, full curve, poor fit] | –
C=CCn1c(SCC(=O)Nc2cccc(C(=O)OC)c2)nnc1C(C)NC(=O)c1cccs1 (stereo not drawn) | 9.2 µM [falling, partial curve] | –
O=S(=O)(NCC(c1cccs1)S(=O)(=O)c1ccccc1)c1ccccc1 (stereo not drawn) | 3.55 µM [falling, partial curve] | –
CC(C)(C)c1cc(NC(=O)CSc2nnc(NCc3ccccc3)s2)n(-c2ccccc2)n1 | 14.6 µM [falling, single point] | –
CC1CCc2c(sc(NC(=S)NC(=O)c3ccccc3)c2C#N)C1 (stereo not drawn) | 6.31 µM [rising, single point] | –

From PubChem BioAssay AID493014 (National Center for Advancing Translational Sciences (NCATS), 2011)
